One molecule from publication PMC5963844 can be followed below.

These are yes or no findings as the source states them, for the method shown. Binding seen in cells or lysates may run through a third protein. Some results given as binding are weak or reduced against the parent protein; the word gives no strength. Where a sequence is shown, tags or fusion partners need not be part of it.

The target in this test is T1, Samp1a–YFP (human) (UniProt Q5SNT2).
T1 sequence: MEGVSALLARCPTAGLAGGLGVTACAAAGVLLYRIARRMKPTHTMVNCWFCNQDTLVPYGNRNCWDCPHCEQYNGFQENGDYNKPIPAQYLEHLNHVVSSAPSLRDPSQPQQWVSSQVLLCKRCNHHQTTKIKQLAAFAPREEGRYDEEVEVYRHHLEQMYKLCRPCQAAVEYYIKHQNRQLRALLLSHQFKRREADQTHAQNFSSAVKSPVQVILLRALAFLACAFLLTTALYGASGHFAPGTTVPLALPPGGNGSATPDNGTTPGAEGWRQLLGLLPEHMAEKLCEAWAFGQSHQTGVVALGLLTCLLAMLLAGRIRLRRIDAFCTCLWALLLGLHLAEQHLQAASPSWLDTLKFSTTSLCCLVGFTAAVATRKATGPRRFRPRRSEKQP
Put plainly: co-IP; membrane protein cross-link immunoprecipitation (MCLIP): cells synchronised in metaphase, in vivo cross-linking with 1 mM DSP for 15 min, lysis in 7 M urea and 1% Triton X-100, diluted 8x with PBS, Samp1a–YFP captured on GFP trap agarose beads 2 h at 4°C, wash 250 mM NaCl, 10 mM Hepes, 0.5% Triton X-100, pH 7.4, cross-link reversed with DTT, western blot. (In western blotting, separated proteins are transferred to a membrane and probed.)

B1: HAUS6 subunit of the Augmin complex (protein, UniProt Q7Z4H7 1-955)
chain: MSSASVTAFEKEHLWMYLQALGFEPGPATIACGKIVSHTHLGVNMFDKLNRDAFHIISYFLFQVLDQSLTKEVFKFCWPPFDQKSDTEFRKHCCEWIKRISGECGSSFPQVVGSLFLSPGGPKFIHLMYHFARFVAMKYIKSNSKNSSHHFVETFNIKPQDLHKCIARCHFARSRFLQILQRQDCVTQKYQENAQLSVKQVRNLRSECIGLENQIKKMEPYDDHSNMEEKIQKVRSLWASVNETLMFLEKEREVVSSVLSLVNQYALDGTNVAINIPRLLLDKIEKQMFQLHIGNVYEAGKLNLLTVIQLLNEVLKVMKYERCQADQARLTVDLHYLEKETKFQKERLSDLKHMRYRIKDDLTTIRHSVVEKQGEWHKKWKEFLGLSPFSLIKGWTPSVDLLPPMSPLSFDPASEEVYAKSILCQYPASLPDAHKQHNQENGCRGDSDTLGALHDLANSPASFLSQSVSSSDRNSVTVLEKDTKMGTPKEKNEAISKKIPEFEVENSPLSDVAKNTESSAFGGSLPAKKSDPFQKEQDHLVEEVARAVLSDSPQLSEGKEIKLEELIDSLGSNPFLTRNQIPRTPENLITEIRSSWRKAIEMEENRTKEPIQMDAEHREVLPESLPVLHNQREFSMADFLLETTVSDFGQSHLTEEKVISDCECVPQKHVLTSHIDEPPTQNQSDLLNKKVICKQDLECLAFTKLSETSRMETFSPAVGNRIDVMGGSEEEFMKILDHLEVSCNKPSTNKTMLWNSFQISSGISSKSFKDNDFGILHETLPEEVGHLSFNSSSSSEANFKLEPNSPMHGGTLLEDVVGGRQTTPESDFNLQALRSRYEALKKSLSKKREESYLSNSQTPERHKPELSPTPQNVQTDDTLNFLDTCDLHTEHIKPSLRTSIGERKRSLSPLIKFSPVEQRLRTTIACSLGELPNLKEEDILNKSLDAKEPPSDLTR
For B1, the binding result is listed as “binds”.
